Patent US8784774B2, “Labeled molecular imaging agents and methods of use” (General Electric Company, priority 2011, dated 2014)
Some results were stated once for a whole list of compounds, not compound by compound. At least one structure is not confirmed: it was looked up by name or label, or the drawing left a doubt.

What was measured:
[1] = molecular target: T1, cystine/glutamate transporter (Mus musculus, UniProt Q9WTR6); assay: Screen of unlabeled compounds for competition with 3H-L-ASU uptake (Example 3); type: cell-based; parameters: endogenous in cells; conditions: unlabeled competitor at high concentration (2.5 mM)
T1 sequence (Q9WTR6 1-502): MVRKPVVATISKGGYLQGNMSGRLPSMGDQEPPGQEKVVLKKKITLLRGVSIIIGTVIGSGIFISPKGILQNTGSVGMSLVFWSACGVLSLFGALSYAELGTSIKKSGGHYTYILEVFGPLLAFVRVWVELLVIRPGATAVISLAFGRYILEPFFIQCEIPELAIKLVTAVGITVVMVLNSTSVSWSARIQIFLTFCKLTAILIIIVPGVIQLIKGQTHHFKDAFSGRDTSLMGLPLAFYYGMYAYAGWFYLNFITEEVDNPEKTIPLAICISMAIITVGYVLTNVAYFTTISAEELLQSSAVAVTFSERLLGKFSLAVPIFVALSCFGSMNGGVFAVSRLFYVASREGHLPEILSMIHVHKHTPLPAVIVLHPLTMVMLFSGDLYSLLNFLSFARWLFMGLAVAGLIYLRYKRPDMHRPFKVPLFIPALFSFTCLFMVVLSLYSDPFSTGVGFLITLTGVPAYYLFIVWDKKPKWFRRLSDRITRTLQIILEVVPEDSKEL
T1 sequence (P10852 1-526 partner): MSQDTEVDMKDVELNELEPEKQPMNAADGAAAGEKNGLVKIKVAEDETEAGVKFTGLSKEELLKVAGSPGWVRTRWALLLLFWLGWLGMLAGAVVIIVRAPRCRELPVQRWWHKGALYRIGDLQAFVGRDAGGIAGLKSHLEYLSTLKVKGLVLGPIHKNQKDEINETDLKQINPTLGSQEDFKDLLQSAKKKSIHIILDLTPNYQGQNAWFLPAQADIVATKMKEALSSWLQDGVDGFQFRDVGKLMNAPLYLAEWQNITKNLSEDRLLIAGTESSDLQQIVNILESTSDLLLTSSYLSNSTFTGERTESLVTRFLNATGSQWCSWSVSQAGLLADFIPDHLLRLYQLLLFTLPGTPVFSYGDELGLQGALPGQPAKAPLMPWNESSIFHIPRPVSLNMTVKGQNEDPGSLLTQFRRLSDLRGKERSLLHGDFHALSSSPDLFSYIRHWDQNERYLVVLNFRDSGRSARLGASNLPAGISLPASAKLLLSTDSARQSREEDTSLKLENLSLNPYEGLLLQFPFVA

[2] = molecular target: T1, cystine/glutamate transporter; assay: 3H-L-Asu uptake in EL4 cells with or without DEM and with transporter inhibitors (Example 1); type: cell-based; parameters: endogenous in cells; host or cells: EL4 mouse lymphoma cells, with or without diethylmaleate (DEM) treatment; conditions: inhibitor 2.5 mM, 15 minutes
Procedure: Mouse lymphoma cells (EL4) were cultured with or without 100 μM diethylmaleate for 24 hours, washed in phosphate buffered saline (PBS) divided into aliquots of 5×10^6 cells and incubated with [^3H]-L-2-aminosuberic acid (^3H-L-Asu) without or with inhibitors of the cystine/glutamate transporter for 15 minutes. Cells were then washed 3 times and collected in a 1 ml volume of 1M HCl and transferred to a scintillation vial. 12 ml of Ready Gel scintillation fluid was added to each sample and cell uptake was determined by scintillation counting using a Perkin Elmer Tri-Carb Liquid Scintillation Analyzer.

SMILES: N[C@@H](CCC(=O)O)C(=O)O [L-GLU, L-glutamate]
- inhibition of ^3H-L-ASU uptake [1]: more than 90%
- inhibition of ^3H-L-Asu uptake [2]: more than 95%
